Test results: patent US20260258004A1, “CRYSTALLINE FORMS OF (6S)-5-[4'-FLUORO-2-(TRIFLUOROMETHYL)BIPHENYL-4-YL]-6-METHYL-3,6- DIHYDRO-2H-l,3,4-OXADIAZIN-2-ONE” (Bayer Aktiengesellschaft, priority 2022, published 2026)
Further values from the same series stand in other lists.

Assay: Particle size distribution by laser diffraction (Malvern Panalytical Mastersizer 3000, Fraunhofer)
Assay type: physicochemical
Experimental: The particle size distribution was measured by laser diffraction using the Malvern Panalytical Mastersizer 3000.
The samples are again taken from example 1.6 (probe 1) and example 1.5 (probe 2), the same as used in example 4.
The sample to be analyzed is dispersed in 1 drop of Tween 80 the sample is processed according to ISO13320.
Laser diffraction is an often-used method for determination the particle size of dispersed solid materials. A widened laser beam illuminates a cuvette which contains part of the particles. By diffraction on the particles a characteristic pattern can be mapped on the detector. The resulting diffraction image is the additive overlaying of diffraction images of all particles.
Besides the mentioned detector two additional detectors are mounted in order to detect diffraction light in forward direction (FA1,9), in wide angle (LA1,2) and in back direction (BS1,2). The turbidity of the sample is measured by an extinction sensor. This is necessary to ensure a low particle concentration which is necessary to avoid wrong results by multiple diffraction of light at several particles.
The cuvette used was a wet unit where the suspension is pumped in a closed circuit with a dispersing unit that ensures a separation of single particles by shear forces.
The measurement range of the Malvern 3000 covers a particle size from 1 mm (2 mm) down to 20 nm
The calculation of the particle size distribution from the diffraction patterns was done on basis of theory of Fraunhofer.
This assumption is valid for particle sizes of 10 to 50 μm and above. For smaller particles the light scattering of the particle itself due to optical transparency must be considered which is done in the Mie-theory (not used for our probes). Precondition of the application of the Mie-theory is the knowledge of the refractive and absorption index of the dispersed solids.
Q3 is the cumulative volume distribution, e.g. D50=Q(50%) indicates 50% of the volume part of the sample is smaller than particle size of 50 μm.
The particle size is expressed as an equivalent diameter used in the method recommended by the Malvern Analysis Program and as described in ISO13320.

With `C[C@@H]1OC(=O)NN=C1c1ccc(-c2ccc(F)cc2)c(C(F)(F)F)c1` [polymorph A, (6S)-5-[4′-Fluoro-2-(trifluoromethyl)biphenyl-4-yl]-6-methyl-3,6-dihydro-2H-1,3,4-oxadiazin-2-one] as the compound, how does the “Cumulative volume distribution Q” value (particle size D 0.0463 μm, 300 s US) read?
The value was 0%.

What about the “Cumulative volume distribution Q” value (particle size D 0.0463 μm, without US) of the same compound?
The value was 0%.

What about the “Cumulative volume distribution Q” value (particle size D 0.0526 μm, 300 s US) of the same compound?
The value was 0%.

And the “Cumulative volume distribution Q” value (particle size D 0.0526 μm, without US)?
The value was 0%.

What about the “Cumulative volume distribution Q” value (particle size D 0.0597 μm, 300 s US) of the same compound?
Its value is 0%.

What about the “Cumulative volume distribution Q” value (particle size D 0.0597 μm, without US) of the same compound?
The value was 0%.

What about the “Cumulative volume distribution Q” value (particle size D 0.0679 μm, 300 s US) of the same compound?
Its value is 0%.

What about the “Cumulative volume distribution Q” value (particle size D 0.0679 μm, without US) of the same compound?
The value was 0%.

What about the “Cumulative volume distribution Q” value (particle size D 0.0771 μm, 300 s US) of the same compound?
Its value is 0%.

And the “Cumulative volume distribution Q” value (particle size D 0.0771 μm, without US)?
Its value is 0%.

What about the “Cumulative volume distribution Q” value (particle size D 0.0876 μm, 300 s US) of the same compound?
Its value is 0%.

And the “Cumulative volume distribution Q” value (particle size D 0.0876 μm, without US)?
The value was 0%.

What about the “Cumulative volume distribution Q” value (particle size D 0.0995 μm, 300 s US) of the same compound?
The value was 0%.

And the “Cumulative volume distribution Q” value (particle size D 0.0995 μm, without US)?
The value was 0%.

And the “Cumulative volume distribution Q” value (particle size D 0.113 μm, 300 s US)?
Its value is 0%.

And the “Cumulative volume distribution Q” value (particle size D 0.113 μm, without US)?
Its value is 0%.

What about the “Cumulative volume distribution Q” value (particle size D 0.128 μm, 300 s US) of the same compound?
The value was 0%.

What about the “Cumulative volume distribution Q” value (particle size D 0.128 μm, without US) of the same compound?
Its value is 0%.

And the “Cumulative volume distribution Q” value (particle size D 0.146 μm, 300 s US)?
Its value is 0%.

And the “Cumulative volume distribution Q” value (particle size D 0.146 μm, without US)?
The value was 0%.

What about the “Cumulative volume distribution Q” value (particle size D 0.166 μm, 300 s US) of the same compound?
The value was 0%.

And the “Cumulative volume distribution Q” value (particle size D 0.166 μm, without US)?
Its value is 0%.

And the “Cumulative volume distribution Q” value (particle size D 0.188 μm, 300 s US)?
Its value is 0%.

And the “Cumulative volume distribution Q” value (particle size D 0.188 μm, without US)?
Its value is 0%.

And the “Cumulative volume distribution Q” value (particle size D 0.214 μm, 300 s US)?
Its value is 0%.

And the “Cumulative volume distribution Q” value (particle size D 0.214 μm, without US)?
The value was 0%.

What about the “Cumulative volume distribution Q” value (particle size D 0.243 μm, 300 s US) of the same compound?
The value was 0%.

And the “Cumulative volume distribution Q” value (particle size D 0.243 μm, without US)?
Its value is 0%.

What about the “Cumulative volume distribution Q” value (particle size D 0.276 μm, 300 s US) of the same compound?
The value was 0%.

And the “Cumulative volume distribution Q” value (particle size D 0.276 μm, without US)?
Its value is 0%.

What about the “Cumulative volume distribution Q” value (particle size D 0.314 μm, 300 s US) of the same compound?
Its value is 0%.

What about the “Cumulative volume distribution Q” value (particle size D 0.314 μm, without US) of the same compound?
The value was 0%.

And the “Cumulative volume distribution Q” value (particle size D 0.357 μm, 300 s US, listed as Probe 1)?
Its value is 0.06%.

What about the “Cumulative volume distribution Q” value (particle size D 0.357 μm, without US) of the same compound?
The value was 0%.

And the “Cumulative volume distribution Q” value (particle size D 0.405 μm, 300 s US, listed as Probe 1)?
The value was 0.15%.

What about the “Cumulative volume distribution Q” value (particle size D 0.405 μm, without US) of the same compound?
Its value is 0%.

What about the “Cumulative volume distribution Q” value (particle size D 0.46 μm, 300 s US, listed as Probe 1) of the same compound?
The value was 0.27%.

And the “Cumulative volume distribution Q” value (particle size D 0.46 μm, without US)?
Its value is 0%.

What about the “Cumulative volume distribution Q” value (particle size D 0.523 μm, 300 s US, listed as Probe 1) of the same compound?
Its value is 0.42%.

What about the “Cumulative volume distribution Q” value (particle size D 0.523 μm, without US) of the same compound?
Its value is 0%.

And the “Cumulative volume distribution Q” value (particle size D 0.594 μm, 300 s US, listed as Probe 1)?
The value was 0.62%.

What about the “Cumulative volume distribution Q” value (particle size D 0.594 μm, without US) of the same compound?
The value was 0%.

What about the “Cumulative volume distribution Q” value (particle size D 0.675 μm, 300 s US, listed as Probe 1) of the same compound?
Its value is 0.85%.

And the “Cumulative volume distribution Q” value (particle size D 0.675 μm, without US)?
The value was 0%.

And the “Cumulative volume distribution Q” value (particle size D 0.767 μm, 300 s US, listed as Probe 1)?
Its value is 1.14%.

What about the “Cumulative volume distribution Q” value (particle size D 0.767 μm, without US) of the same compound?
The value was 0%.

And the “Cumulative volume distribution Q” value (particle size D 0.872 μm, 300 s US, listed as Probe 1)?
Its value is 1.46%.

What about the “Cumulative volume distribution Q” value (particle size D 0.872 μm, without US) of the same compound?
The value was 0%.

What about the “Cumulative volume distribution Q” value (particle size D 0.991 μm, 300 s US, listed as Probe 1) of the same compound?
Its value is 1.84%.

What about the “Cumulative volume distribution Q” value (particle size D 0.991 μm, without US) of the same compound?
Its value is 0%.

What about the “Cumulative volume distribution Q” value (particle size D 1.13 μm, 300 s US, listed as Probe 1) of the same compound?
The value was 2.26%.

What about the “Cumulative volume distribution Q” value (particle size D 1.13 μm, without US) of the same compound?
Its value is 0%.

And the “Cumulative volume distribution Q” value (particle size D 1.28 μm, 300 s US, listed as Probe 1)?
Its value is 2.74%.

And the “Cumulative volume distribution Q” value (particle size D 1.28 μm, without US)?
Its value is 0%.

And the “Cumulative volume distribution Q” value (particle size D 1.45 μm, 300 s US, listed as Probe 1)?
Its value is 3.26%.

And the “Cumulative volume distribution Q” value (particle size D 1.45 μm, without US)?
The value was 0%.

And the “Cumulative volume distribution Q” value (particle size D 1.65 μm, 300 s US, listed as Probe 1)?
The value was 3.84%.

And the “Cumulative volume distribution Q” value (particle size D 1.65 μm, without US, listed as Probe 1)?
Its value is 0.07%.

What about the “Cumulative volume distribution Q” value (particle size D 1.88 μm, 300 s US, listed as Probe 1) of the same compound?
The value was 4.48%.

What about the “Cumulative volume distribution Q” value (particle size D 1.88 μm, without US, listed as Probe 1) of the same compound?
The value was 0.14%.

What about the “Cumulative volume distribution Q” value (particle size D 2.13 μm, 300 s US, listed as Probe 1) of the same compound?
The value was 5.18%.

What about the “Cumulative volume distribution Q” value (particle size D 2.13 μm, without US, listed as Probe 1) of the same compound?
The value was 0.23%.

What about the “Cumulative volume distribution Q” value (particle size D 2.42 μm, 300 s US, listed as Probe 1) of the same compound?
The value was 5.97%.

What about the “Cumulative volume distribution Q” value (particle size D 2.42 μm, without US, listed as Probe 1) of the same compound?
The value was 0.32%.

And the “Cumulative volume distribution Q” value (particle size D 2.75 μm, 300 s US, listed as Probe 1)?
Its value is 6.84%.

And the “Cumulative volume distribution Q” value (particle size D 2.75 μm, without US, listed as Probe 1)?
Its value is 0.43%.

What about the “Cumulative volume distribution Q” value (particle size D 3.12 μm, 300 s US, listed as Probe 1) of the same compound?
Its value is 7.8%.

And the “Cumulative volume distribution Q” value (particle size D 3.12 μm, without US, listed as Probe 1)?
Its value is 0.56%.

What about the “Cumulative volume distribution Q” value (particle size D 3.55 μm, 300 s US, listed as Probe 1) of the same compound?
The value was 8.87%.

And the “Cumulative volume distribution Q” value (particle size D 3.55 μm, without US, listed as Probe 1)?
Its value is 0.69%.

What about the “Cumulative volume distribution Q” value (particle size D 4.03 μm, 300 s US, listed as Probe 1) of the same compound?
Its value is 10.03%.

And the “Cumulative volume distribution Q” value (particle size D 4.03 μm, without US, listed as Probe 1)?
The value was 0.84%.

And the “Cumulative volume distribution Q” value (particle size D 4.58 μm, 300 s US, listed as Probe 1)?
The value was 11.28%.

And the “Cumulative volume distribution Q” value (particle size D 4.58 μm, without US, listed as Probe 1)?
Its value is 1.01%.

What about the “Cumulative volume distribution Q” value (particle size D 5.21 μm, 300 s US, listed as Probe 1) of the same compound?
Its value is 12.61%.

What about the “Cumulative volume distribution Q” value (particle size D 5.21 μm, without US, listed as Probe 1) of the same compound?
Its value is 1.18%.
